# Test results as given in patent US20240398973A1 (Eli Lilly and Company, priority 2017, published 2024).
# The star is where a group is joined. For = O=C*
# What was measured:
# [1] = general procedure: Fmoc solid-phase peptide synthesis; Fmoc-Lys(Mtt)-Wang resin, 100-200 mesh, 0.57 meq/g; Fmoc-Lys(Boc)-Wang resin; conditions: for final HPLC purity: analytical RP-HPLC; for isolated yield: based on starting resin substitution
# [2] = general procedure: Fmoc solid-phase peptide synthesis; Fmoc-Lys(Mtt)-Wang; conditions: whole synthesis, scale 0.3 mmol, TFA salt
# [3] = Conjugation ratio determination by intact mass spec; type: physicochemical; conditions: peptide:antibody ratio
# [4] = general procedure: Fmoc solid-phase peptide synthesis; Fmoc-Lys(Boc)-Wang; conditions: whole synthesis, scale 0.3 mmol, HCl salt
# [5] = whole synthesis, scale of the general procedure 0.3 mmol, TFA salt
substance,measurement,setting,value
formyl-Met-Leu-Phe-Lys (Mal-PEG12)-OH,final HPLC purity,"[1]; conjugation step, TFA salt",>96%
same,conjugation yield,"[1]; conjugation step, based on starting material, TFA salt",38%
H-Met-Leu-Phe-Lys (Mal-PEG12-OH (MLFK; Mal-PEG12-OH; SITE 4 MISC_FEATURE - position 4 is lysine residue modified by amide bond formation to maleimide-polyethylene glycol (PEG) linker),isolated mass,[2],38.8 mg
same,final HPLC purity,[1]; [5],>96%
same,isolated yield,[1]; [5],10%
"LC202: cMet (emibetuzumab) LC 202C mutant conjugated with Peptide-'183; HC SEQ ID NO:43, LC SEQ ID NO:31",Conjugation Ratio (CR),[3],0.43
For-MLFK-OH,final HPLC purity,"[1]; whole synthesis, scale of the general procedure 0.3 mmol, HCl salt",>99%
same,isolated yield,"[1]; whole synthesis, scale 0.3 mmol, HCl salt",73%
same,isolated mass,[4],125 mg
formyl-Nle-Leu-Phe-PEG12-Lys (Maleimido-Propionyl)-OH,final HPLC purity,"[1]; late stage modification step, TFA salt",>97%
same,step yield,"[1]; late stage modification step, based on starting material, TFA salt",15.1%
"HC397: cMet (emibetuzumab) HC 397C mutant conjugated with Peptide-'183; HC SEQ ID NO:48, LC SEQ ID NO:5",Conjugation Ratio (CR),[3],0.36
"HC262: cMet (emibetuzumab) HC 262C mutant conjugated with Peptide-'183; HC SEQ ID NO:46, LC SEQ ID NO:5",Conjugation Ratio (CR),[3],0.62
